{"source": "patent US10000791B2", "about": "“Measurement method for human pancreatic lipase activity” (ASAHI KASEI PHARMA CORPORATION, priority 2013, dated 2018)", "tested_on": "human pancreatic lipase", "assay": "pH dependence of human pancreatic lipase activity in the presence of bile acids (diglyceride substrate, UV method)", "type": "biochemical", "conditions": "pooled serum; conjugated bile acid singly, 40 mmol/L in R-1; BES pH 6.8-8.0", "method": "After weighing 1,2-dioleoyl glycerol (DODG) (manufactured by Nippon Fine Chemical Co., Ltd.) to attain a concentration of 9.32 mmol/L when dissolved, 1% polyoxyethylene (10) nonyl phenyl ether (NPE) (manufactured by Wako Pure Chemical Industries Ltd.) containing 1.66 mmol/L of MES (manufactured by Dojindo Laboratories) was added thereto to be dissolved therein by stirring at 37° C. for 2 hours, and the resultant was allowed to stand still in ice for 2 hours or more. The thus obtained solution was used as a substrate original liquid.\nThe above-described diglyceride original liquid was used for preparing a “substrate stock solution” having the following composition:\nA “first reaction solution (R-1)” having the following composition was prepared:\nA “second reaction solution (R-2)” having the following composition was prepared: […]\nA mixture of the substrate stock solution and the R-1 in a proportion of 1:2 was used as a first reagent. […] The sample was added to the first reagent, the resultant mixture was heated at 37° C. for 5 minutes, the second reagent was added thereto, and a change rate of an absorbance at 340 nm based on reduced NADP was obtained at 37° C. from 3 minutes after the addition of the second reagent to 4 minutes after the addition, and then, the lipase activity was calculated by using a molecular extinction coefficient of 6300 L/mol·cm of the reduced NADP. […]", "note": "Some results were stated once for a whole list of compounds, not compound by compound. At least one structure is not confirmed: it was looked up by name or label, or the drawing left a doubt."}
{"smiles": "C[C@H](CCC(=O)NCC(=O)[O-])[C@H]1CC[C@H]2[C@@H]3[C@H](O)C[C@@H]4C[C@H](O)CC[C@]4(C)[C@H]3CC[C@]12C.[Na+]", "note": "[NaGCDCA, sodium glycochenodeoxycholate]", "values": [{"measurement": "pH for giving a maximum value of the human pancreatic lipase activity (apparent optimum pH)", "result": "lower than 6.8"}]}
